Data set [1] relates to intestinal transit of the charcoal. Briefly: Vegetable carbon (charcoal) intestinal transit test in vivo. Conditions: therapeutic index, DL50 / charcoal ED50, rat i.v. How it is done: B. The vegetable carbon method in vivo (charcoal method) which consists of administering by oral means to rats, which have fasted for 24 hours, 0.3ml/per rate of a mixture consisting of: 10g of charcoal and 5 g of gum arabic suspended in a volume of 100 cc of H2 O as well as at the same time the substance being studied, accordingly as desired, generally i.v., s.c., oral. After two hours the animals are killed and those are taken to be negative in which the charcoal has reached the first portion of the colon and the others positive, in the sense that the substance administered has slowed down the intestinal transit of the charcoal.
In effect the animals treated with a physiological solution (checks) are all negative after two hours.
D. I.T.1 is the therapeutic index under the profile of the antispastic activity in vivo, and it is obtained by recording the DL50 (column 2) with the ED50 of the charcoal test (column 3).

Data set [2] relates to ileum of a cavy (BaCl2 spasm). Briefly: Antispastic activity in vitro, Magnus method, cavy ileum stimulated with BaCl2. In kind it is cell-based. The conditions noted are these: therapeutic index, in vitro activity index (column 4) x DL50. The procedure: C. The method in vitro is that of Magnus, with the ileum of the cavy, and is in common use for all evaluations. It consists of extracting the ileum from the cavy and placing it in a receptacle which contains nutritive liquid, suitably oxygenated, and registering the movements of the organ which remains alive for several hours if maintained at a temperature of 37°. According to the traditional method followed by us, BaCl2 is put into the bath as a spasmisant: the reaction is a violent contraction of the organ. This contraction can be prevented by adding beforehand pharmaceuticals which inhibit spasms, and in this case our compounds.
The values recorded are expressed as relation between papaverine and the ED50 of our compounds. (As is known, the ED50 is the dose which results in a 50% reduction in spastic contraction).
E. I.T.2 is the therapeutic index under the profile of the antispastic activity in vitro and is given by the product between the in vitro antispastic activity index (column 4) and the corresponding DL50 (column 2).

Consider 28 compounds from patent publication US4004008A, “O-Tertiary amino-alkyl-N-benzoyl tyrosil amides” (priority 1974, dated 1977).

In the case of `CCCN(CCC)C(=O)C(Cc1ccc(OCCN(CC)CC)cc1)NC(=O)c1ccc(Cl)cc1` (racemic) [CR 716, O-(2-diethylamino-ethyl)-N-(p-chloro-benzoyl)-DL-tyrosil-di-n-propylamide], the “I.T.1: DL50/ED50 in vivo” value in data set [1] was 2.1. The “I.T.2: DL50 CR x ED50 pap./ED50 CR” value in data set [2] amounted to 89.1.
`CCCN(CCC)C(=O)C(Cc1ccc(OCCCN2CCN(C)CC2)cc1)NC(=O)c1ccc(Cl)cc1` (racemic) [CR 725, O-[3-(N"-methyl-piperazine)-N'-propyl]-N-(p-chloro-benzoyl)-DL-tyrosil-di-n-propylamide]: in data set [1], the “I.T.1: DL50/ED50 in vivo” value stood at 5.1. For the same compound, the “I.T.2: DL50 CR x ED50 pap./ED50 CR” value in data set [2] is 200.
With `CCCN(CCC)C(=O)C(Cc1ccc(OCCN(C(C)C)C(C)C)cc1)NC(=O)c1ccc(Cl)cc1` (racemic) [CR 727, O-(2'-di-isopropylamino-ethyl)-N-(p-chloro-benzoyl)-DL-tyrosil-di-n-propylamide], the “I.T.1: DL50/ED50 in vivo” value in data set [1] is on record as 1.05. In addition, in data set [2], the “I.T.2: DL50 CR x ED50 pap./ED50 CR” value was 40.
Take `CCCCNC(=O)C(Cc1ccc(OCCN(CC)CC)cc1)NC(=O)c1ccc(Cl)cc1` (racemic) [CR 729, O-(2-diethylamino-ethyl)-N-(p-chloro-benzoyl)-DL-tyrosil-n-butylamide]: the “I.T.1: DL50/ED50 in vivo” value in data set [1] was found to be 1.6. In addition, the “I.T.2: DL50 CR x ED50 pap./ED50 CR” value in data set [2] is given as 94.6.
The corresponding values for `CCCCNC(=O)C(Cc1ccc(OCCN2CCN(C)CC2)cc1)NC(=O)c1ccc(Cl)cc1` (racemic) [CR 730, O-[2-(N"-methyl-piperazine)-N'-ethyl]-N-(p-chloro-benzoyl)-DL-tyrosil-n-butylamide] are 1.6 and 49.5.
The corresponding values for `CCCCN(CCCC)C(=O)C(Cc1ccc(OCCCN2CCN(C)CC2)cc1)NC(=O)c1ccccc1Cl` (racemic) [CR 731, O-[3-(N"-methyl-piperazine)-N'-propyl]-N-(o-chloro-benzoyl)-DL-tyrosil-di-n-butylamide] are 1.5 and 106.7.
The corresponding values for `CCCN(CCC)C(=O)C(Cc1ccc(OCCN2CCN(C)CC2)cc1)NC(=O)c1ccc(Cl)cc1` (racemic) [CR 733, O-[2'-(N"-methyl-piperazine)-N'-ethyl]-N-(p-chloro-benzoyl)-DL-tyrosil-di-n-propylamide] are 2.6 and 57.
Regarding `CCN(CC)CCOc1ccc(CC(NC(=O)c2ccccc2)C(=O)N(CC)CC)cc1` (racemic) [CR 734, O-(2-diethylamino-ethyl)-N-benzoyl-DL-tyrosil-di-ethylamide], in data set [1], the “I.T.1: DL50/ED50 in vivo” value is on record as 1.8. In addition, in data set [2], the “I.T.2: DL50 CR x ED50 pap./ED50 CR” value is listed as 32.3.
Turning to `CCN(CC)C(=O)C(Cc1ccc(OCCN2CCN(C)CC2)cc1)NC(=O)c1ccccc1` (racemic) [CR 736, O-[2-(N"-methyl-piperazine)-N'-ethyl]-N-benzoyl-DL-tyrosildiethylamide], the “I.T.1: DL50/ED50 in vivo” value in data set [1] is given as 2.5. For the same compound, in data set [2], the “I.T.2: DL50 CR x ED50 pap./ED50 CR” value is 4.0.
Turning to `CCN(CC)CCOc1ccc(CC(NC(=O)c2ccccc2)C(=O)N(C)C)cc1` (racemic) [CR 738, O-(2-diethylamino-ethyl)-N-benzoyl-DL-tyrosil-di-methylamide], in data set [1], the “I.T.1: DL50/ED50 in vivo” value amounted to 1.7. Further, the “I.T.2: DL50 CR x ED50 pap./ED50 CR” value in data set [2] is given as 11.9.
Regarding `CCCCNC(=O)C(Cc1ccc(OCCN(CC)CC)cc1)NC(=O)c1ccccc1` (racemic) [CR 786, O-(2-diethylamine-ethyl)-N-benzoyl-DL-tyrosil-n-butylamide], the “I.T.1: DL50/ED50 in vivo” value in data set [1] amounted to 1.1. Moreover, in data set [2], the “I.T.2: DL50 CR x ED50 pap./ED50 CR” value stood at 6.5.
The corresponding values for `CCCN(CCC)C(=O)C(Cc1ccc(OCCN(CC)CC)cc1)NC(=O)c1ccc(C)cc1` (racemic) [CR 807, O-(2-diethylamino-ethyl)-N-toluoyl-DL-tyrosil-di-n-propylamide] are 1.5 and 10.7.
In the case of `CCCCNC(=O)C(Cc1ccc(OCCN2CCCC2)cc1)NC(=O)c1ccc(Cl)cc1` (racemic) [CR 812, O-(2'-pyrrolidil-N'-ethyl)-N-(p-chloro-benzoyl)-DL-tyrosil-n-butylamide], the “I.T.1: DL50/ED50 in vivo” value in data set [1] was determined as 1.3. In addition, the “I.T.2: DL50 CR x ED50 pap./ED50 CR” value in data set [2] was 27.8.
In the same order, the values of `CCCN(CCC)C(=O)C(Cc1ccc(OCCCN(C)C)cc1)NC(=O)c1ccccc1` (racemic) [CR 816, O-(3-dimethylamino-propyl)-N-benzoyl-DL-tyrosil-di-n-propylamide] are 2.9 and 32.0.
The corresponding values for `CCCNC(=O)C(Cc1ccc(OCCN2CCCC2)cc1)NC(=O)c1ccccc1` (racemic) [CR 821, O-(2-pyrrolidil-N'-ethyl)-N-benzoyl-DL-tyrosil-n-propylamide] are 3.4 and 6.9.
Turning to `CCCN(CCC)CCOc1ccc(CC(NC(=O)c2ccccc2)C(=O)N(CCC)CCC)cc1` (racemic) [CR 823, O-(2-di-n-propylamino-ethyl)-N-benzoyl-DL-tyrosil-di-n-propylamide], the “I.T.1: DL50/ED50 in vivo” value in data set [1] is on record as 1.4. For the same compound, the “I.T.2: DL50 CR x ED50 pap./ED50 CR” value in data set [2] was determined as 34.1.
In the case of `CCCCCCNC(=O)C(Cc1ccc(OCCN2CCCC2)cc1)NC(=O)c1ccccc1` (racemic) [CR 825, O-(2-pyrrolidil-N'-ethyl)-N-benzoyl-DL-tyrosil-n-hexylamide], the “I.T.1: DL50/ED50 in vivo” value in data set [1] is reported as 2.8. In data set [2], the “I.T.2: DL50 CR x ED50 pap./ED50 CR” value amounted to 75.7.
As for `CCCCCCNC(=O)C(Cc1ccc(OCCN2CCCC2)cc1)NC(=O)c1ccc(C)cc1` (racemic) [CR 826, 0-(2-pyrrolidil-N'-ethyl)-N-toluoyl-DL-tyrosil-n-hexylamide], the “I.T.1: DL50/ED50 in vivo” value in data set [1] came out at 2.4. In data set [2], the “I.T.2: DL50 CR x ED50 pap./ED50 CR” value worked out at 49.2.
In the same order, the values of `CCCN(CCC)C(=O)C(Cc1ccc(OCCN(CC)CC)cc1)NC(=O)OCc1ccccc1` (racemic) [CR 832, O-(2-diethylamino-ethyl)-N-carbobenzoxy-DL-tyrosil-di-n-propylamide] are 1.9 and 45.3.
`CCCN(CCC)C(=O)C(Cc1ccc(OCCN(C)C)cc1)NC(=O)OCc1ccccc1` [CR 603, O-(2-dimethylamino-ethyl)-N-carbobenzoxy-L-tyrosil-di-n-propylamide]: in data set [1], the “I.T.1: DL50/ED50 in vivo” value amounted to 2.05. In data set [2], the “I.T.2: DL50 CR x ED50 pap./ED50 CR” value is recorded as 151.
Regarding `CCNC(=O)C(Cc1ccc(OCCN(C)C)cc1)NC(=O)OCc1ccccc1` [CR 610, O-(2-dimethylamino-ethyl)-N-carbobenzoxy-L-tyrosil-ethylamide], the “I.T.1: DL50/ED50 in vivo” value in data set [1] was 2.4. Also, the “I.T.2: DL50 CR x ED50 pap./ED50 CR” value in data set [2] came out at 18.2.
The corresponding values for `CN(C)CCOc1ccc(C[C@H](NC(=O)OCc2ccccc2)C(=O)NCc2ccccc2)cc1` [CR 612, O-(2-dimethylamino-ethyl)-N-carbobenzoxy-L-tyrosil-benzylamide] are 3.8 and 30.5.
Consider `CCCN(CCC)C(=O)C(Cc1ccc(OCCN(C)C)cc1)NC(=O)OCc1ccc([N+](=O)[O-])cc1` (centres unmarked) [CR 613], for which, in data set [1], the “I.T.1: DL50/ED50 in vivo” value was 1.7. The “I.T.2: DL50 CR x ED50 pap./ED50 CR” value in data set [2] was 68.2.
The corresponding values for `CCCN(CCC)C(=O)C(Cc1ccc(OCCN(CC)CC)cc1)NC(=O)OCc1ccccc1` [CR 627, O-(2-diethylamino-ethyl)-N-carbobenzoxy-D-tyrosil-di-n-propylamide] are 1.6 and 48.9.
In the same order, the values of `CCCN(CCC)C(=O)C(Cc1ccc(OCCN(CC)CC)cc1)NC(=O)c1ccccc1` [CR 804, O-(2-diethylamino-ethyl)-N-benzoyl-L-tyrosil-di-n-propylamide] are 2.1 and 29.8.
In the same order, the values of `CCCN(CCC)C(=O)C(Cc1ccc(OCCN(CC)CC)cc1)NC(=O)OCc1ccccc1` [CR 830, O-(2-diethylamino-ethyl)-N-carbobenzoxy-L-tyrosil-di-n-propylamide] are 1.8 and 47.2.
`CCCN(CCC)C(=O)C(Cc1ccc(OCCN(CC)CC)cc1)NC(=O)c1ccc(Cl)cc1` [CR 831, O-(2-diethylamino-ethyl)-N-(p-chloro-benzoyl)-L-tyrosil-din-propylamide]: the “I.T.1: DL50/ED50 in vivo” value in data set [1] is 1.4. The “I.T.2: DL50 CR x ED50 pap./ED50 CR” value in data set [2] is on record as 45.5.
Consider “O-(3-pyrrolidil-N'-propyl)-N-toluoyl-DL-tyrosil-n-butylamide [CR 797]”, for which the “I.T.1: DL50/ED50 in vivo” value in data set [1] worked out at 1.7. For the same compound, the “I.T.2: DL50 CR x ED50 pap./ED50 CR” value in data set [2] came out at 27.2.
